Several values for one entry are separate records, joined by “and”; a condition that tells them apart may be missing. Identical values can stand only once. Counter-ions that a name gives are not always drawn. Some of the results follow. This data set is noisy: repeats of one test often differ as much as different tests do.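 Wild-type human LRH-1, a heavily sumoylated nuclear receptor, is tetracycline-inducible in stable JEG3 cells. RT-qPCR measured SUMO-sensitive APOC3 and MUC1 transcripts, which rise with SUMO-less LRH-1 or UBC9 knockdown, versus TBP and DMSO controls. Robust Z-scores beyond ±2 flagged primary hits, followed by toxicity and TBP filtering.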
What follows are compounds tested on JEG3 expressing hLRH-1 (assay: APOC3 transcript change (ddCt vs TBP and DMSO), Z-score over library; higher = higher APOC3 expression). Conditions: 10 µM; time (hr): 24.

Structure (SMILES) | APOC3 transcript change (Z-score)
CCCCCCCCCCC[C@@H](C[C@@H]1OC(=O)[C@H]1CCCCCC)OC(=O)[C@H](CC(C)C)NC=O [orlistat] | 1.41
C[C@H]1CC2C3CCC4=CC(=O)C=C[C@]4(C)[C@@]3(F)[C@@H](O)C[C@]2(C)[C@@]1(O)C(=O)CO (stereo partly drawn) [betamethasone] | 0.121
OC(CCN1CCCCC1)(c1ccccc1)C1CCCCC1 (stereo not drawn) [Trihexyphenidyl hydrochloride] | -0.213
OCCOCCN1CCN(C2=Nc3ccccc3Sc3ccccc32)CC1 [quetiapine] | -1.14
Cc1ncc([N+](=O)[O-])n1CC(O)CCl (stereo not drawn) [ornidazole] | -0.931
COc1ccc(/C=C/C(=O)Nc2ccccc2C(=O)O)cc1OC [tranilast] | 0.0523
C#C[C@]1(O)CC[C@H]2[C@@H]3CCc4cc(OC5CCCC5)ccc4[C@H]3CC[C@@]21C [quinestrol] | -0.361
Cc1nc(N)cc(C[n+]2csc(CCO)c2C)n1 [thiamine] | 0.0941
Cc1ccccc1N1C(=O)c2cc(S(N)(=O)=O)c(Cl)cc2NC1C (stereo not drawn) [metolazone] | 0.696
COc1cc(Cc2cnc(N)nc2N)cc(OC)c1OC [Trimethoprim] | 0.17
COc1ccccc1OCCNCC(O)COc1cccc2[nH]c3ccccc3c12 (stereo not drawn) [carvedilol] | 0.356 and 0.412
CC[C@@]1(O)C(=O)OCc2c1cc1n(c2=O)Cc2cc3c(CN(C)C)c(O)ccc3nc2-1 [topotecan hydrochloride] | -3.44
COCC1=C(C(=O)OC(C)OC(=O)OC(C)C)N2C(=O)[C@@H](NC(=O)/C(=N\OC)c3csc(N)n3)[C@H]2SC1 (stereo partly drawn) [cefpodoxime proxetil] | -0.000448
C[C@H]1[C@H](OC(=O)CCC(=O)O)O[C@@H]2O[C@@]3(C)CC[C@H]4[C@H](C)CC[C@@H]1[C@@]24OO3 [artesunate] | 0.294
CCCCC(CC)CN1CN(CC(CC)CCCC)CC(C)(N)C1 (stereo not drawn) [hexetidine] | 0.308
O=C(O)CN(CCN(CC(=O)O)CC(=O)O)CCN(CC(=O)O)CC(=O)O [pentetic acid] | 1.04
Cc1c(NC(C)C)c(=O)n(-c2ccccc2)n1C [ramifenazone] | -0.189
C[C@H](Cn1cnc2c(N)ncnc21)OCP(=O)(O)O [tenofovir] | 0.525
C[C@@H]1CN(c2c(F)c(F)c3c(=O)c(C(=O)O)cn(C4CC4)c3c2F)C[C@H](C)N1 [orbifloxacin] | 0.237
C#C[C@]1(O)CCC2C3CCC4=C(CCC(=O)C4)C3CC[C@@]21C (stereo partly drawn) [norethynodrel] | 0.439
CCCCNc1ccc(C(=O)OCCOCCOCCOCCOCCOCCOCCOCCOCCOC)cc1 [benzonatate] | -0.926
O=C(OCc1ccccc1)c1ccccc1 [benzyl benzoate] | 0.182
COc1ccc(Cc2cnc(N)nc2N)cc1OC [diaveridine] | -0.256
Cc1c(N(C)CS(=O)(=O)O)c(=O)n(-c2ccccc2)n1C [dipyrone] | -0.644
CC(C)CC(N)=O [isovaleramide] | -1.09

Structure (SMILES) | APOC3 transcript change (Z-score)
COCCCOc1cc(C[C@@H](C[C@H](N)[C@@H](O)C[C@H](C(=O)NCC(C)(C)C(N)=O)C(C)C)C(C)C)ccc1OC [aliskiren hemifumarate] | 0.238
O=P(O)(O)C(O)(Cc1cccnc1)P(=O)(O)O [risedronate sodium] | -0.0644
C[C@H](CCC(=O)O)[C@H]1CCC2C3C(CC[C@@]21C)[C@@]1(C)CC[C@@H](O)C[C@H]1C[C@@H]3O (stereo partly drawn) [ursodiol] | -0.314
Cc1onc(-c2c(Cl)cccc2Cl)c1C(=O)N[C@@H]1C(=O)N2[C@@H]1SC(C)(C)[C@@H]2C(=O)O [dicloxacillin sodium] | 0.626
CCCCC(=O)N(Cc1ccc(-c2ccccc2-c2nn[nH]n2)cc1)[C@H](C(=O)O)C(C)C [valsartan] | -0.175
O=C(O)c1cc(N=Nc2ccc(S(=O)(=O)Nc3ccccn3)cc2)ccc1O [sulfasalazine] | -0.439
CCCCOC(=O)c1ccc(N)cc1 [butamben] | -0.611
NNC(=O)c1ccncc1.Nc1ccc(C(=O)O)c(O)c1 [pasiniazid] | -0.209
O=C(CCCl)NCCc1ccccc1 [fenaclon] | -0.0642
NS(=O)(=O)c1cc2c(cc1Cl)NC=NS2(=O)=O [Chlorothiazide] | 0.466
CNS(=O)(=O)Cc1ccc2[nH]cc(CCN(C)C)c2c1 [sumatriptan succinate] | -0.94
NS(=O)(=O)c1cc(C(=O)O)c(NCc2ccco2)cc1Cl [furosemide] | -1.06
Cc1cc2cc3c(C)cc(=O)oc3c(C)c2o1 [trioxsalen] | -0.0912
CCCCC(CC)COc1ccc(-c2nc(-c3ccc(OC)cc3)nc(-c3ccc(OCC(CC)CCCC)cc3O)n2)c(O)c1 (stereo not drawn) [bemotrizinol] | -0.0333
CN(C)CC(c1ccc(O)cc1)C1(O)CCCCC1 (stereo not drawn) [desvenlafaxine succinate] | -0.179
O=c1n(CCCN2CCN(c3cccc(Cl)c3)CC2)nc2ccccn12 [Trazodone hydrochloride] | 0.301
CC(CN(C)C)CN1c2ccccc2CCc2ccccc21 (stereo not drawn) [trimipramine maleate] | 0.271
CN1CCCN=C1COC(=O)C(O)(c1ccccc1)C1CCCCC1 (stereo not drawn) [oxyphencyclimine hydrochloride] | -0.187
COc1c(C)c2c(c(O)c1C/C=C(\C)CCC(=O)O)C(=O)OC2 [mycophenolic acid] | 2.11
CC(=O)Nc1ccc(CC(=O)O)cc1 [actarit] | 2.94
CC(=O)OCC(=O)[C@@]12N=C(C)O[C@@H]1C[C@H]1[C@@H]3CCC4=CC(=O)C=C[C@]4(C)[C@H]3[C@@H](O)C[C@@]12C [deflazacort] | 1.48
C1CCN2C[C@@H]3C[C@H](CN4CCCC[C@@H]34)[C@H]2C1 [sparteine sulfate] | -0.0227
CCN1CCCC(OC(=O)C(c2ccccc2)c2ccccc2)C1 (stereo not drawn) [piperidolate hydrochloride] | -0.397
CC(C)(C)NC[C@H](O)c1ccc(O)c(CO)c1 [levalbuterol hydrochloride] | 0.475
CN(C)[C@@H]1C(=O)C(C(=O)NCN2CCCC2)=C(O)[C@@]2(O)C(O)=C3C(=O)c4c(O)cccc4[C@@](C)(O)[C@H]3C[C@@H]12 [rolitetracycline] | 1.19

Structure (SMILES) | APOC3 transcript change (Z-score)
CC(C)Nc1ncccn1 [isaxonine] | 0.352
CCCCCCCCCCCCC[N+](C)(C)Cc1ccccc1 [benzalkonium chloride] | 0.708
CCCCCCCCCCOc1cc2c(O)c(C(=O)OCC)cnc2cc1OCC [decoquinate] | 0.908
CCc1cccc2c3c([nH]c12)C(CC)(CC(=O)O)OCC3 (stereo not drawn) [etodolac] | 0.254
CC(=O)[C@H]1CC[C@H]2[C@@H]3C[C@H](C)C4=CC(=O)CC[C@]4(C)[C@H]3[C@@H](O)C[C@]12C [medrysone] | 1.1
CN1C(C(=O)Nc2ccccn2)=C(O)c2sccc2S1(=O)=O [tenoxicam] | -0.762
CCCCNC(=O)NS(=O)(=O)c1ccc(C)cc1 [Tolbutamide] | -0.958
C[C@]12C=CC(=O)C=C1CC[C@@H]1[C@@H]2[C@@H](O)C[C@@]2(C)[C@H]1CC[C@]2(O)C(=O)COC(=O)CCC(=O)O [prednisolone hemisuccinate] | -0.244
COC(=O)[C@@H]1[C@H]2C[C@H]3c4[nH]c5ccccc5c4CCN3C[C@@H]2CC[C@@H]1O [yohimbine hydrochloride] | -0.195
O=C1CCc2ccc(OCCCCN3CCN(c4cccc(Cl)c4Cl)CC3)cc2N1 [aripiprazole] | 0.367
O=C(O)c1ccc[n+]([O-])c1 [oxiniacic acid] | -2.35
CCCCCCc1ccc(O)cc1O [hexylresorcinol] | 0.221
C[C@H]1COc2c(C3(N)CC3)c(F)cc3c(=O)c(C(=O)O)cn1c23 [pazufloxacin mesylate] | -1.29
CCC(C)[C@H]1O[C@]2(C=C[C@@H]1C)C[C@@H]1C[C@@H](C/C=C(\C)[C@@H](OC3C[C@H](OC)C(O[C@H]4C[C@H](OC)[C@@H](NC(C)=O)[C@H](C)O4)[C@H](C)O3)[C@@H](C)/C=C/C=C3\CO[C@@H]4[C@H](O)C(C)=C[C@@H](C(=O)O1)[C@]34O)O2 (stereo partly drawn) [eprinomectin] | 1.04
C[C@]12CC[C@@H]3c4ccc(O)cc4C[C@@H](CCCCCCCCCS(=O)CCCC(F)(F)C(F)(F)F)[C@H]3[C@@H]1CC[C@@H]2O (stereo partly drawn) [fulvestrant] | -0.581
CO[C@@H]1[C@@H](O[C@@H]2O[C@H](C)[C@@H](O[C@H]3C[C@@](C)(O)[C@H](O)[C@H](C)O3)[C@H](N(C)C)[C@H]2O)[C@@H](CC=O)C[C@@H](C)[C@@H](O[C@H]2CC[C@H](N(C)C)[C@@H](C)O2)/C=C/C=C/C[C@H](C)OC(=O)C[C@H]1O [spiramycin] | 0.4
N=C(N)NCC1COC2(CCCCC2)O1 (stereo not drawn) [guanadrel sulfate] | -0.558
CCCCOc1cc(C(=O)NCCN(CC)CC)c2ccccc2n1 [dibucaine hydrochloride] | -0.14
Cc1cc(C(C)(C)CC(C)(C)C)ccc1OCCOCC[N+](C)(C)Cc1ccccc1 [methylbenzethonium chloride] | 0.549
CC(C)[C@H](NC(=O)[C@H](CC(=O)O)NC(=O)[C@H](CCCCN)NC(=O)[C@@H](N)CCCN=C(N)N)C(=O)N[C@@H](Cc1ccc(O)cc1)C(=O)O [thymopentin] | -0.412
CC(=O)[C@H]1CCC2C3CC=C4C[C@@H](O)CC[C@]4(C)C3CC[C@@]21C (stereo partly drawn) [pregnenolone] | 0.361
Cc1cc(NC(=O)C2=C(O)c3ccccc3S(=O)(=O)N2C)no1 [isoxicam] | -2.37
Oc1ncc(F)c(O)n1 [fluorouracil] | -1.04

From the supplement of paper PMC4749390
